Experimental data taken from PubChem BioAssay AID2685 (National Center for Advancing Translational Sciences (NCATS), 2010).
The other results are listed elsewhere or left out. These are further read-outs of the screen, such as a control signal, another cell line or another target. No call is given for them. Compounds called inactive in the main read-out are mostly missing here. Potencies come from curve fits of mixed quality, noted in brackets.

Experiment: qHTS Assay for Lipid Storage Modulators in Drosophila S3 Cells;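 for cell number change: cells counted by Cell Tracker Red CMTPX staining in the red channel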
Settings: BODIPY lipid droplet fluorescence, 18-24 h; for cell number change: measured here: cell count max response, cells fed with added oleic acid
Outline: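 Drosophila S3 cells got compounds at several concentrations plus oleic acid (400 uM solution). Laser-scanning cytometry with 488 nm excitation read lipid droplets at 500-530 nm and cells at 575-640 nm. Percent activity was relative to 20 uM Triacsin C.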

[1] = measured here: cell number channel AC50, cells fed with added oleic acid
[2] = measured here: lipid fluorescence (Fed channel) AC50, cells fed with added oleic acid

COc1ccccc1CCNC(=O)C1CCCO1 (stereo not drawn)
cell number change: 2.58%

CCOC(=O)c1ccc(N2C(=O)c3n[nH]c(C)c3C2c2ccco2)cc1 (stereo not drawn)
cell number change: 39.2%
AC50 [1]: 0.82 µM [rising, full curve, poor fit]
AC50 [2]: 1.46 µM [rising, partial curve]

Cc1ccc(NC(=O)Cn2cc(C(=O)C3CC3)c3ccccc32)cc1
cell number change: 186%
AC50 [1]: 29.1 µM [rising, single point]

CCN(CC)CCN1C(=O)C(O)=C(C(=O)c2cccs2)C1c1ccc(C)o1 (stereo not drawn)
cell number change: 4.7%
AC50 [1]: 1.16 µM [falling, full curve, poor fit]

Cc1ccc(C(=O)NNC(=O)c2csc(N3CCOCC3)n2)s1
cell number change: 9.12%
AC50 [2]: 6.51 µM [rising, single point]

COc1cc(/C=C/C(=O)c2ccc(NS(=O)(=O)c3ccc(C)cc3)cc2)ccc1OC(F)F
AC50 [2]: 6.51 µM [rising, single point]

CCC(=O)c1ccc(OCC(O)CN2CCN(c3ccccn3)CC2)cc1 (stereo not drawn)
cell number change: 28.4%
AC50 [1]: 0.103 µM [rising, full curve, poor fit]

O=C(Nc1ccccc1C(F)(F)F)c1ccsc1
cell number change: 18.1%

Cc1cc(C(=O)OCC(=O)NC2(C#N)CCCCC2)c(C)o1
AC50 [2]: 23.1 µM [rising, partial curve, poor fit]

COCCCNC(=O)CN(CCc1ccccc1)S(=O)(=O)c1ccccc1
cell number change: 122%
AC50 [1]: 3.66 µM [falling, single point]
AC50 [2]: 29.1 µM [rising, single point]

C/C(=N\NC(=O)c1ccccc1)c1c(C)[nH]n(-c2ccccc2)c1=O
cell number change: -12.1%

CC(C)(C)NC(=O)c1ccc(NC(=O)c2ccccc2-c2ccccc2C(=O)O)cc1
cell number change: 31.2%
AC50 [1]: 1.03 µM [rising, full curve, poor fit]
AC50 [2]: 29.1 µM [rising, single point]

CCN(CC)P(=O)(C(NC(=O)OC)C(F)(F)C(F)(F)C(F)(F)C(F)F)N(CC)CC (stereo not drawn)
cell number change: 77.6%

CCC(C)NC(=O)C(CCSC)NC(=O)c1ccccc1 (stereo not drawn)
cell number change: -38%
AC50 [1]: 4.11 µM [falling, full curve, poor fit]
AC50 [2]: 13 µM [falling, partial curve]

CCOc1cc2[nH]c(=O)n(Cc3ccc(C(=O)NCCCN4CCCC4=O)cc3)c(=O)c2cc1OCC
cell number change: -16.3%

COc1ccc(-n2c(=O)cc(N3CCN(c4ccccc4OC)CC3)[nH]c2=O)cc1
cell number change: 0.539%

O=C(c1ccc2nc(N3CCCCC3)sc2c1)N1CCN(c2ccccn2)CC1
cell number change: 85.7%
AC50 [1]: 4.11 µM [rising, full curve]
AC50 [2]: 2.31 µM [rising, full curve]

O=C(CSc1ncnc2nc[nH]c12)Nc1nnc(SCc2ccc(Cl)c(Cl)c2)s1
cell number change: -9.55%

Cc1ccc(-n2ncc3c2CCCC3NC(=O)CCCN2CCCCC2=O)cc1C (stereo not drawn)
cell number change: -10.8%
AC50 [2]: 0.164 µM [rising, full curve, poor fit]

O=C(Nc1cccc(NC(=O)c2cccs2)c1)c1ccc(Br)cc1
cell number change: 6.82%
AC50 [2]: 8.2 µM [falling, partial curve]

CN1CCN(C(=O)CCN2C(=O)S/C(=C/c3ccc(Cl)cc3)C2=O)CC1
cell number change: 135%
AC50 [1]: 29.1 µM [rising, single point]

COc1ccc(-c2nc3n(n2)C(c2ccccc2Cl)C(C(N)=O)=C(C)N3)cc1 (stereo not drawn)
cell number change: 32.1%
AC50 [1]: 2.31 µM [rising, partial curve, poor fit]
AC50 [2]: 0.731 µM [falling, single point]

O=C(NCC(=O)N(c1cccc(F)c1)C(C(=O)NC1CCCC1)c1cccnc1)c1ccco1 (stereo not drawn)
cell number change: 12.9%

CCOc1ccccc1OCCn1nnc2ccccc21
AC50 [2]: 0.58 µM [rising, single point]

CC(C)C(=O)Nc1cccc(-c2nc3ncccc3o2)c1
cell number change: -8.5%

CCOC(=O)[C@H]1[C@H]2COc3ccc(OC)cc3[C@@H]2N2C(=O)CN(Cc3ccc(OC)cc3)C(=O)[C@@]12C
cell number change: -11.1%

Cc1ccc(C(=O)NCCc2cccc(Cl)c2)cc1[N+](=O)[O-]
cell number change: 6.04%
AC50 [2]: 5.8 µM [rising, partial curve]

CC(=O)Nc1c2c(nn1-c1ccc(C)cc1C)CS(=O)C2 (stereo not drawn)
cell number change: 20.7%
AC50 [1]: 0.517 µM [rising, full curve, poor fit]
AC50 [2]: 29.1 µM [falling, single point]

CCOc1ccc(-n2c(SC(C)C)nc3c(c2=O)SCC3)cc1
cell number change: -26.3%
AC50 [2]: 0.058 µM [falling, full curve, poor fit]

COc1cc(C(=O)NC(=S)Nc2ccc(N3CCCC3)cc2)cc(OC)c1OC
cell number change: -31.8%
AC50 [1]: 2.06 µM [falling, full curve]
AC50 [2]: 3.66 µM [falling, full curve]

CCOc1ccc(C(C)=O)cc1N1C(=O)C2C3C=CC(O3)C2C1=O (stereo not drawn)
cell number change: -72.5%
AC50 [1]: 29.1 µM [falling, single point]
AC50 [2]: 29.1 µM [falling, single point]

COc1ccc(C)cc1NC(=O)Nc1ccc2c(c1)CCC2
cell number change: 2.55%
AC50 [2]: 29.1 µM [falling, single point]

CCN(CC)CCN1C(=O)C(=O)/C(=C(/O)c2cnn(-c3ccccc3)c2C)C1c1ccc(C)o1 (stereo not drawn)
cell number change: 13.5%
AC50 [2]: 10.3 µM [rising, partial curve, poor fit]

Cc1ccc(S(=O)(=O)N(C)CC(=O)N/N=C/c2ccc(C)o2)cc1
cell number change: 12.6%
AC50 [2]: 0.731 µM [rising, full curve, poor fit]

CC(C(=O)Nc1nc(-c2ccc(F)cc2)cs1)N1C(=O)C2CC=CCC2C1=O (stereo not drawn)
cell number change: -41.8%
AC50 [1]: 16.4 µM [falling, partial curve]

Cc1nc2sc(C(c3ccco3)N3CC(C)OC(C)C3)c(O)n2n1 (stereo not drawn)
cell number change: 20.4%
AC50 [2]: 2.31 µM [rising, full curve]

Cc1ccc(-n2c(C)cc(/C=C3\SC(=O)NC3=O)c2C)cc1
cell number change: 2.7%
AC50 [2]: 4.61 µM [falling, partial curve]

CCSc1nc2ccccc2c(=O)n1-c1c(C)n(C)n(-c2ccccc2)c1=O
cell number change: -13.8%
AC50 [1]: 0.0651 µM [falling, full curve, poor fit]
AC50 [2]: 23.1 µM [falling, single point]
